Reference: PubChem BioAssay AID504834 (National Center for Advancing Translational Sciences (NCATS), 2011)
About 22,000 (6.9%) of roughly 320,000 compounds were called active. The inconclusive results got no clear call from the source; some entries with a clear call stand among them for comparison. Calls follow the shape of the dose curve; as a rule, active = well fitted inhibition curve with a large enough effect; inconclusive = small, poorly fitted or top-dose-only effect, or another doubt; inactive = no such curve, though single readings can be large or run the other way. Potencies of inconclusive entries are doubtful fits and often do not repeat.

Test: Primary qHTS for delayed death inhibitors of the malarial parasite plastid, 96 hour incubation
Conditions: P. falciparum luciferase reporter growth; series mostly up to 28.7 µM
In short: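 Erythrocytes infected with luciferase-expressing P. falciparum were dispensed at 2% hematocrit and 0.05% parasitemia (final), then incubated with compounds 96 hours at 37 C in 5% CO2. Luminescence after detection reagent addition reported growth.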
Potency is read from the fitted curve at half-maximal effect.

Structure (SMILES) | Potency
O=C(CSc1ccc(F)cc1)NC12CC3CC(CC(C3)C1)C2 | inconclusive: 18.5 µM [inhibitor, single point]
CC(C)(C)NCc1ccccc1OCc1cccs1 | inconclusive: 10.4 µM [inhibitor, partial curve, poor fit]
N=c1c2c(ncn1CCN1CCOCC1)Oc1cc(O)ccc1C2c1ccccc1 (centres undefined) | inconclusive: 11.7 µM [inhibitor, partial curve, poor fit]
Cc1ccc(C)c(NC(=O)c2cc(-c3cccnc3)nc3ccccc23)c1 | inactive
CCC1OC(=O)C(C)C(OC2C[C@@](C)(OC)C(O)C(C)O2)C(C)C(O[C@@H]2OC(C)CC(N(C)C)C2O)[C@](C)(O)CC(C)C(=NOCOCCOC)C(C)C(O)[C@]1(C)O (some centres undefined) | active: 7.38 µM
Cc1cc(NC(=O)COc2ccc(Cl)cc2Cl)n(CCC#N)n1 | inconclusive: 1.17 µM [inhibitor, partial curve, poor fit]
COc1cc(C(=O)N2CCN(S(=O)(=O)c3ccc(F)cc3)CC2)cc(OC)c1OC | inactive
CCc1nn(C(C)C(=O)N2CCN(c3ccccc3)CC2)c(=O)c2cc3occc3n12 (centres undefined) | inconclusive: 13.1 µM [inhibitor, partial curve, poor fit]
CC1CCc2c(sc(NC(=O)c3c([N+](=O)[O-])cnn3C)c2C(N)=O)C1 (centres undefined) | inactive
Cc1nnsc1-c1c(C(=O)O)c(C)nn1-c1ccc(OC(F)(F)F)cc1 | inconclusive: 1.65 µM [inhibitor, full curve, poor fit]
COc1ccc(C(=O)N(C)Cc2ccccn2)cc1OC1CCN(C(C)C)CC1 | inactive
NC(=O)[C@H]1CC2(CC(c3cccc(NC(=O)COc4ccc(Cl)cc4)c3)=NO2)CN1C(=O)CC(c1ccccc1)c1ccccc1 (some centres undefined) | inconclusive: 13.1 µM [inhibitor, single point]
CCOC(=O)N1CCN(Cc2ccc(O)c3ncccc23)CC1 | inactive
CCOc1ncccc1C(=O)OCC(=O)c1ccc(OC)c(OC)c1 | inactive
Cc1ccc(C)c(N2CCN(C(=O)C3CCN(S(=O)(=O)c4c(C)noc4C)CC3)CC2)c1 | inconclusive: 18.5 µM [inhibitor, single point]
Cc1nc(N2CCN(C(c3ccccc3)c3ccccc3)CC2)nc2c1C(=O)CCC2 | inconclusive: 8.28 µM [inhibitor, partial curve]
O=S(=O)(c1ccccc1)N1CCN=C1SCc1cccnc1 | inactive
CC(=O)N(c1nnc(-c2cccc(C)c2)s1)C1CCCC1 | inactive
COc1ccc(S(=O)(=O)c2c(O)c3ccc(C(=O)Nc4ccccc4)cc3[nH]c2=O)cc1 | inconclusive: 18.5 µM [inhibitor, single point]

2 compounds picked at random from those above, as already listed:
Structure (SMILES) | Potency
Cc1cc(NC(=O)COc2ccc(Cl)cc2Cl)n(CCC#N)n1 | inconclusive: 1.17 µM [inhibitor, partial curve, poor fit]
COc1ccc(S(=O)(=O)c2c(O)c3ccc(C(=O)Nc4ccccc4)cc3[nH]c2=O)cc1 | inconclusive: 18.5 µM [inhibitor, single point]
